At least one peptide structure holds a part that was inferred or is arguable (an end, a ring closure or a residue). Some entries repeat one wording, which the source may state once for all of them. Where a SMILES comes first, the peptide text is derived from it.
Tested on: PANC1
Experiment: HLA-class I blocking assay, IFN-gamma ELISPOT of CTLs with PANC1 target cells
Assay type: cell-based, human
Details: for inhibition of IFN-gamma production of peptide-induced CTLs by anti-HLA-class I mAb (W6/32): PANC1 incubated 1 hour with 10 micro g/mL mAb, P<0.01; for inhibition of IFN-gamma production of peptide-induced CTLs by anti-HLA-DR mAb (H-DR-1): PANC1 incubated 1 hour with mAb

CC[C@H](C)[C@H](NC(=O)[C@@H](N)CS)C(=O)N[C@@H](C)C(=O)N[C@@H](CCC(=O)O)C(=O)N[C@@H](CCC(N)=O)C(=O)N[C@@H](Cc1ccc(O)cc1)C(=O)N[C@@H](Cc1c[nH]cn1)C(=O)N[C@H](C(=O)N[C@H](C(=O)O)C(C)C)[C@@H](C)O [RAB6KIFL-A2-9-809, CIAEQYHTV] (H-CIAEQYHTV-OH; N-terminus and C-terminus assumed)
inhibition of IFN-gamma production of peptide-induced CTLs by anti-HLA-class I mAb (W6/32): markedly inhibit
inhibition of IFN-gamma production of peptide-induced CTLs by anti-HLA-DR mAb (H-DR-1): but not by H-DR-1

CC(C)C[C@H](NC(=O)[C@@H]1CCCN1C(=O)[C@H](C)NC(=O)[C@@H](NC(=O)[C@H](CC(=O)O)NC(=O)[C@@H]1CCCN1C(=O)[C@H](CCC(N)=O)NC(=O)[C@H](C)N)[C@@H](C)O)C(=O)N1CCC[C@H]1C(=O)N[C@H](C(=O)O)C(C)C [RAB6KIFL-A2-10-284, AQPDTAPLPV] (H-AQPDTAPLPV-OH; N-terminus and C-terminus assumed)
inhibition of IFN-gamma production of peptide-induced CTLs by anti-HLA-class I mAb (W6/32): markedly inhibit
inhibition of IFN-gamma production of peptide-induced CTLs by anti-HLA-DR mAb (H-DR-1): but not by H-DR-1

CC(C)C[C@H](NC(=O)[C@@H](N)CC(C)C)C(=O)N[C@@H](CO)C(=O)N[C@@H](CC(=O)O)C(=O)N[C@@H](CC(=O)O)C(=O)N[C@@H](CC(=O)O)C(=O)N[C@H](C(=O)N[C@H](C(=O)N[C@H](C(=O)O)C(C)C)C(C)C)C(C)C [RAB6KIFL-A2-9-12, LLSDDDVVV] (H-LLSDDDVVV-OH; N-terminus and C-terminus assumed)
inhibition of IFN-gamma production of peptide-induced CTLs by anti-HLA-class I mAb (W6/32): markedly inhibit
inhibition of IFN-gamma production of peptide-induced CTLs by anti-HLA-DR mAb (H-DR-1): but not by H-DR-1
